PubChem BioAssay AID1259405 – NCATS | 2018
The deposit covers about 50,000 reagents; below is a random part of them. About 4,000 of all reagents (8%) count as active. 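Mouse siRNA library applied to hamster cells; one well for each siRNA.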 Unmarked entries are inactive. The numbers tell different reagents against one gene apart.

- Screen: 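Silenced genes that increase secreted GFP made by CHO cells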 (primary screen)
- Cell system: Chinese hamster CHO-K1 ovary cells with stable secreted eGFP expression
- Reagents: single siRNA against mouse genes, 0.8 pmol siRNA per well (2 µl of 400 nM stock)
- Time to read-out: 3 days
- Read-out: 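Percent of the per-plate non-targeting control median for intracellular GFP per well by laser scanning cytometry and for cell viability by ATP luminescence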
- Scale: GFP, % of control: higher = more GFP per well, higher productivity; viability (ATP), % of control: higher = more viable cells (more ATP)
- Hit rule: 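Called active when intracellular GFP, relative to negative control, is at or above 120%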

gene symbol	reagent	GFP, % of control	viability (ATP), % of control
Haus3 (GeneID 231123)	1	31.5	82.6
Haus3 (GeneID 231123)	2	86.5	52.5
Haus3 (GeneID 231123)	3	180 (active)	131
Haus3 (GeneID 231123)	4	98.9	109
Haus3 (GeneID 231123)	5	84.5	65.7
Haus3 (GeneID 231123)	6	54.4	81
Otol1 (GeneID 229389)	1	51.7	76.4
Otol1 (GeneID 229389)	2	36.5	47.4
Otol1 (GeneID 229389)	3	70.1	74.5
Trmt112 (GeneID 67674)	1	85	102
Trmt112 (GeneID 67674)	2	98.3	84.1
Trmt112 (GeneID 67674)	3	51.8	31.3
Rbms2 (GeneID 56516)	1	55.1	65.4
Rbms2 (GeneID 56516)	2	73.4	82
Gpr173 (GeneID 70771)	1	72.1	81.6
Gpr173 (GeneID 70771)	2	62.8	77.3
Gpr173 (GeneID 70771)	3	76.4	84.6
Mecr (GeneID 26922)	1	115	99.4
Mecr (GeneID 26922)	2	80.2	88.8
Mecr (GeneID 26922)	3	44.3	36.7
Trpt1 (GeneID 107328)	1	67.2	48.4
Trpt1 (GeneID 107328)	2	73	66.8
Trpt1 (GeneID 107328)	3	60.2	72.7
Slc35b3 (GeneID 108652)	1	48.8	47.9
Slc35b3 (GeneID 108652)	2	82.6	78.3
Slc35b3 (GeneID 108652)	3	84.6	93.9
Gpx8 (GeneID 69590)	1	98.4	69.8
Gpx8 (GeneID 69590)	2	78.1	68.9
Gpx8 (GeneID 69590)	3	61.7	80.5
Nhp2 (GeneID 52530)	1	73.7	55.8
Nhp2 (GeneID 52530)	2	30.2	33.3
Nhp2 (GeneID 52530)	3	121 (active)	74.8
Ascl1 (GeneID 17172)	1	108	93.6
Ascl1 (GeneID 17172)	2	72.9	77.2
Foxi2 (GeneID 270004)	1	65	67
Foxi2 (GeneID 270004)	2	54.5	69.7
Foxi2 (GeneID 270004)	3	73.3	91.8
Abcb1b (GeneID 18669)	1	63.4	46.5
Abcb1b (GeneID 18669)	2	88.2	101
Abcb1b (GeneID 18669)	3	54.6	67.3
Arhgap44 (GeneID 216831)	1	66.2	63.9
Arhgap44 (GeneID 216831)	2	61.7	89.7
Arhgap44 (GeneID 216831)	3	59.1	73.6
Mapk8ip3 (GeneID 30957)	1	63.8	62
Mapk8ip3 (GeneID 30957)	2	70.9	80.9
Mapk8ip3 (GeneID 30957)	3	96.7	88.7
Plekhf2 (GeneID 71801)	1	72.3	60.5
Plekhf2 (GeneID 71801)	2	37.9	58.3
Plekhf2 (GeneID 71801)	3	90.3	61.2
Tmprss13 (GeneID 214531)	1	64.8	52.6
Tmprss13 (GeneID 214531)	2	32.5	52.9
Tmprss13 (GeneID 214531)	3	33.6	51
Kng1 (GeneID 16644)	1	73.5	73.8
Kng1 (GeneID 16644)	2	85.9	96
Kng1 (GeneID 16644)	3	58.2	40.6
Usp54 (GeneID 78787)	1	61.7	60.9
Usp54 (GeneID 78787)	2	62.9	61.9
Usp54 (GeneID 78787)	3	87.6	74.6
Usp54 (GeneID 78787)	4	89.9	80.8
Usp54 (GeneID 78787)	5	77.8	62.3
Usp54 (GeneID 78787)	6	104	98.1
Gch1 (GeneID 14528)	1	89.9	73.1
Gch1 (GeneID 14528)	2	108	101
Gch1 (GeneID 14528)	3	45.4	55.4
Or52w1 (GeneID 258352)	1	67.7	66.2
Or52w1 (GeneID 258352)	2	68.6	68.2
Or52w1 (GeneID 258352)	3	78.9	97.2
Nxph4 (GeneID 104080)	1	122 (active)	112
Nxph4 (GeneID 104080)	2	80.3	87.8
Nxph4 (GeneID 104080)	3	60.2	65.7
Spink7 (GeneID 408198)	1	30.6	29.4
Spink7 (GeneID 408198)	2	98.2	70
Spink7 (GeneID 408198)	3	76.4	82.1
Or8u8 (GeneID 18352)	1	62.2	56.2
Or8u8 (GeneID 18352)	2	125 (active)	78.4
Or8u8 (GeneID 18352)	3	112	81.6
Bin1 (GeneID 30948)	1	59.3	65.3
Bin1 (GeneID 30948)	2	39.4	26.6
Bin1 (GeneID 30948)	3	90.5	74.5
Sqor (GeneID 59010)	1	107	84.8
Sqor (GeneID 59010)	2	81.2	60.3
Sqor (GeneID 59010)	3	59	81.9
Prl8a6 (GeneID 19112)	1	51.7	81.8
Prl8a6 (GeneID 19112)	2	67.6	56.3
Prl8a6 (GeneID 19112)	3	66.1	73.8

Records listed so far whose gene name begins with F or f (3):
gene symbol	reagent	GFP, % of control	viability (ATP), % of control
Foxi2 (GeneID 270004)	1	65	67
Foxi2 (GeneID 270004)	2	54.5	69.7
Foxi2 (GeneID 270004)	3	73.3	91.8
